Assay results: paper PMC6315883
Results are given in words; binding and its absence hold for the method and conditions named. In cells and extracts the contact can be indirect. Some results given as binding are weak or reduced against the parent protein; the word gives no strength. For some assays here: Where a sequence is shown, tags or fusion partners need not be part of it.

Chains of the proteins cited; added tags and fusions are not shown. Residues count along the entry.
UniProt P16144, residues 28-1822: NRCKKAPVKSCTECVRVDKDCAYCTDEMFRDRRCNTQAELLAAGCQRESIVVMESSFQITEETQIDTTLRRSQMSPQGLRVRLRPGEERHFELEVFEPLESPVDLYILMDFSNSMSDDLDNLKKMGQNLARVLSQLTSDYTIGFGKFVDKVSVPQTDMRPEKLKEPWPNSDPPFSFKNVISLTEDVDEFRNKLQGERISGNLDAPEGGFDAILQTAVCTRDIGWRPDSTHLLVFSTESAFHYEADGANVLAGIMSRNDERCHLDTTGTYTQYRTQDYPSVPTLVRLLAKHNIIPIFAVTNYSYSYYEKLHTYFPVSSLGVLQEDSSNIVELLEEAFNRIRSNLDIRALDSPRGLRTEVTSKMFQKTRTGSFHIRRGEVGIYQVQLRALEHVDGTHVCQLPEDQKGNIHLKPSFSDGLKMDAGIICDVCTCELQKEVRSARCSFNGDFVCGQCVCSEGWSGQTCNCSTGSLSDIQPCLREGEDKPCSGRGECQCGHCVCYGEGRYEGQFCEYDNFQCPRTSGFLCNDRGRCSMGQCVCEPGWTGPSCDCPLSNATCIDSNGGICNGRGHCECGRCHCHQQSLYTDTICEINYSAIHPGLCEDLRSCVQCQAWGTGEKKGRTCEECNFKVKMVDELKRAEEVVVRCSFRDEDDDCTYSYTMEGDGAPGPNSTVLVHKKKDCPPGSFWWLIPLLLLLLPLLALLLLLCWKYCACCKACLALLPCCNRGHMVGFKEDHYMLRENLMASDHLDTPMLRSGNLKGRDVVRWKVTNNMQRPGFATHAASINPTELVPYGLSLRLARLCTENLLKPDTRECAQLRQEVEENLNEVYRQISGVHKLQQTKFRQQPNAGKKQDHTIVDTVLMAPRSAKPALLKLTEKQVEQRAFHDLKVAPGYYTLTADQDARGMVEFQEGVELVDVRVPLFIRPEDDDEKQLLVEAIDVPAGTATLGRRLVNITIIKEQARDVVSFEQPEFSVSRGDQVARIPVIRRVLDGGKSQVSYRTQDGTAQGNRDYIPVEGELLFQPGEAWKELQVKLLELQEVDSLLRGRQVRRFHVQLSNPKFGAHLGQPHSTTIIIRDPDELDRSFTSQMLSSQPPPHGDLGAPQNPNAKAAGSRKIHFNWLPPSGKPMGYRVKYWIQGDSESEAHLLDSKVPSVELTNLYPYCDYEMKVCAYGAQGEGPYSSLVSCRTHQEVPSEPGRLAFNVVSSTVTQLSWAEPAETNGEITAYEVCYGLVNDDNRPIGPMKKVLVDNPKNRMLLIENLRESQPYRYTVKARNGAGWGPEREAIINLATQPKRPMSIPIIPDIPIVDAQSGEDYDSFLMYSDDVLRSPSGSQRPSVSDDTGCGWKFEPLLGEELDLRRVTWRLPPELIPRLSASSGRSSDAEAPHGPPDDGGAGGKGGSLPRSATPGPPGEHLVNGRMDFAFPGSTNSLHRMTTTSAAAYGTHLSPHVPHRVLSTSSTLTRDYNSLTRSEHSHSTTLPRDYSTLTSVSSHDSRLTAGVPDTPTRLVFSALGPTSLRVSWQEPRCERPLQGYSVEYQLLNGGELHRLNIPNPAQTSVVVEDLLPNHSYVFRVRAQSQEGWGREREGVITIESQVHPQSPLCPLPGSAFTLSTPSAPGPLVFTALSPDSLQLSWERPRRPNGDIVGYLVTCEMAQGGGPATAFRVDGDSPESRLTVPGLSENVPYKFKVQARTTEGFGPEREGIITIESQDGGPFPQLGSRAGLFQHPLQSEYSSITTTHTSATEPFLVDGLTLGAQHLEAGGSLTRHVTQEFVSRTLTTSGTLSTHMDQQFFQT
UniProt P46934: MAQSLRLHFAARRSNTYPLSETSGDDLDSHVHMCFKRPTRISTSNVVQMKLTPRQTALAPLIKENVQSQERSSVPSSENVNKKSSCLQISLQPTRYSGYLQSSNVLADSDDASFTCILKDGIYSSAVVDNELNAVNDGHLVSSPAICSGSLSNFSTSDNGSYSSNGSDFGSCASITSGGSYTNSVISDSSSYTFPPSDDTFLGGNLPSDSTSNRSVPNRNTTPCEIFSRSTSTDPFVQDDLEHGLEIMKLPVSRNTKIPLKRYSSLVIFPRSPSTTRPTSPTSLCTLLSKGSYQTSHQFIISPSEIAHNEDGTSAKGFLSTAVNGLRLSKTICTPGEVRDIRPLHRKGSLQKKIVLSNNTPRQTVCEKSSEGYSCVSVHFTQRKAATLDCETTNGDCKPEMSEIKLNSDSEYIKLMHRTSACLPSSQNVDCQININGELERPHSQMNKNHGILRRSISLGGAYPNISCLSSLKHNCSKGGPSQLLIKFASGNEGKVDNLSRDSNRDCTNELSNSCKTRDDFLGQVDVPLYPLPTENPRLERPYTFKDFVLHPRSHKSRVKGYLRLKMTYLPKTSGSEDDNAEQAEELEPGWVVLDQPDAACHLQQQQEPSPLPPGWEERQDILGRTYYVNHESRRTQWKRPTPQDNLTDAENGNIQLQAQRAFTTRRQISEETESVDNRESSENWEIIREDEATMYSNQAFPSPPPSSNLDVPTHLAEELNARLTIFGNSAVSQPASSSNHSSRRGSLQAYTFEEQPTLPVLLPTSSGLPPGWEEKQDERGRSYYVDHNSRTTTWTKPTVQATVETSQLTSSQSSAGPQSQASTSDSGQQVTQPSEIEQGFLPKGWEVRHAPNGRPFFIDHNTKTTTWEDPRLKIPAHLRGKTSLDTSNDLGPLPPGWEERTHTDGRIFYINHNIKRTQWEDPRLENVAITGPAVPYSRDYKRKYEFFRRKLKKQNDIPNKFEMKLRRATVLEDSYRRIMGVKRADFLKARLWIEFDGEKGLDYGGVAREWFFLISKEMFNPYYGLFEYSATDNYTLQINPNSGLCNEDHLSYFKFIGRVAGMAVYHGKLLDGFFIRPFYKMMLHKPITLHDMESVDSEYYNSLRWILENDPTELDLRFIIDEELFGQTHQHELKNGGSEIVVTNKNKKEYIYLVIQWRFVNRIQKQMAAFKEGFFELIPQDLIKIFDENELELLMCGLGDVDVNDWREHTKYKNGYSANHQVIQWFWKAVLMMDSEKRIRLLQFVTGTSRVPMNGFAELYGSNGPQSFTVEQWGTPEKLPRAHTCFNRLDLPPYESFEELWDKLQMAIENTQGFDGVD

Tests used:
[1] = target: integrin β4 (human (endogenous in MDA-MB-231)) (UniProt P16144); assay: co-IP; MDA-MB-231 cells transfected with HA-NEDD4; endogenous ITG β4 immunoprecipitated and blotted for HA (left panel); reverse IP with HA trap beads and blot for ITG β4 (right panel); CellLytic M lysis buffer, overnight at 4 °C
[2] = target: 3xHA-NEDD4 (UniProt P46934); assay: co-IP; MDA-MB-231 cells co-transfected with GFP or GFP-ARRDC3 and HA or HA-NEDD4; IP with HA trap beads, blots with ITG β4, HA and GFP antibodies

Row | binding [1] | binding [2] | Molecule
1 | binds |  | 3xHA-NEDD4 (from UniProt P46934 1-1319) (enzyme)
2 |  | binds | GFP-ARRDC3 (protein, UniProt Q96B67 1-414) MVLGKVKSLTISFDCLNDSNVPVYSSGDTVSGRVNLEVTGEIRVKSLKIHARGHAKVRWTESRNAGSNTAYTQNYTEEVEYFNHKDILIGHERDDDNSEEGFHTIHSGRHEYAFSFELPQTPLATSFEGRHGSVRYWVKAELHRPWLLPVKLKKEFTVFEHIDINTPSLLSPQAGTKEKTLCCWFCTSGPISLSAKIERKGYTPGESIQIFAEIENCSSRMVVPKAAIYQTQAFYAKGKMKEVKQLVANLRGESLSSGKTETWNGKLLKIPPVSPSILDCSIIRVEYSLMVYVDIPGAMDLFLNLPLVIGTIPLHPFGSRTSSVSSQCSMNMNWLSLSLPERPEAPPSYAEVVTEEQRRNNLAPVSACDDFERALQGPLFAYIQEFRFLPPPLYSEIDPNPDQSADDRPSCPSR
